# Measured values taken from PubChem BioAssay AID493014 (National Center for Advancing Translational Sciences (NCATS), 2011).
# The list shows a part of the results. The main result of the screen is listed elsewhere. These columns were measured beside it and carry no call. Compounds called inactive in the main read-out are mostly missing here. Potencies come from curve fits of mixed quality, noted in brackets.
# Assay: qHTS Assay to Find Inhibitors of Chronic Active B-Cell Receptor Signaling
# Settings: ABC-DLBCL IkBa-CBG/CBR reporter, luminescence ratio (green luciferase fused to IkBa over red control in TMD8 lymphoma cells), 4 h
# How it was run: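 Cell line TMD8 (human ABC DLBCL), stably expressing tet-inducible CBG68-IkBa fusion and CBR; IMDM/0.5% FBS; cpd up to 46 uM; dox induction, 4 h, 37C/5% CO2; dual luminescence; green/red ratio; MG132 control.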
# [1] = measured here: CBR red luminescence, cell number
# [2] = measured here: IkBa-CBG green luminescence
smiles,measurement,setting,value
c1ccc(Nc2cccc3ccccc23)cc1,AC50,[1],"25.9 µM [rising, single point]"
COc1ccc(-c2cc(=NCCC(=O)O)c3cc(C)ccc3o2)cc1,AC50,[1],"0.316 µM [rising, full curve, poor fit]"
CCc1c(C)nc(N)nc1N1N=C1SCCOc1ccccc1,AC50,[1],"11.2 µM [falling, partial curve]"
C[C@@H]1O[C@@H](O[C@H]2C[C@@H](O)[C@]3(CO)[C@@H]4C(CC[C@]3(O)C2)[C@@]2(O)CC[C@H](C3COC(=O)C3)[C@@]2(C)C[C@H]4O)[C@H](O)[C@H](O)[C@H]1O (stereo partly drawn),AC50,[1],"9.2 µM [falling, partial curve, poor fit]"
CN1/C(=C\C=C\C2=[N+](C)c3ccc4ccccc4c3C2(C)C)C(C)(C)c2ccccc21,AC50,[1],"11.2 µM [falling, single point]"
O=C(/C=C/c1ccccc1)NCCc1cnc[nH]1,AC50,[1],"35.5 µM [falling, single point]"
same,AC50,[2],"35.5 µM [rising, partial curve, poor fit]"
O=C(O)C(F)(F)S(=O)(=O)O,AC50,[1],"31.6 µM [falling, single point]"
CCCN1CC(C)C(OC(C)=O)(c2ccccc2)CC1C (stereo not drawn),AC50,[1],"13 µM [rising, partial curve, poor fit]"
O=c1c2ccccc2nc(/C=C/c2ccc([N+](=O)[O-])o2)n1-c1ccc(O)cc1,AC50,[1],"6.31 µM [falling, single point]"
same,AC50,[2],"2.82 µM [falling, full curve]"
COc1cc2c(cc1/C=C/[N+](=O)[O-])OCO2,AC50,[1],"15.8 µM [falling, partial curve]"
COc1ccccc1OP(=O)(Nc1ccc(Br)cc1)Oc1ccccc1OC,AC50,[1],"35.5 µM [falling, single point]"
COc1ccc(NC(=O)CN2C(=O)CN=C(c3ccccc3)c3ccccc32)c(OC)c1,AC50,[1],"35.5 µM [rising, single point]"
COC(=O)C1=C(c2ccc(Cl)c(C(F)(F)F)c2)C[C@@H]2CC[C@H]1N2C(=O)NCc1ccco1,AC50,[1],"18.4 µM [falling, single point]"
Cc1cc(C(=O)C[N+]23CCN(CC2)CC3)c(C)n1-c1ccc(Br)cc1,AC50,[1],"8.91 µM [falling, partial curve]"
O=C1C2CCCN2C(c2ccncc2)N1c1ccc(Cl)c(Cl)c1 (stereo not drawn),AC50,[1],"3.16 µM [rising, full curve, poor fit]"
CCCNC(=O)c1c(N)n(Cc2ccco2)c2nc3ccccc3nc12,AC50,[1],"32.6 µM [falling, partial curve, poor fit]"

# Shown with bars between the fields: entries from further up
smiles | measurement | setting | value
COc1ccc(NC(=O)CN2C(=O)CN=C(c3ccccc3)c3ccccc32)c(OC)c1 | AC50 | [1] | 35.5 µM [rising, single point]
COC(=O)C1=C(c2ccc(Cl)c(C(F)(F)F)c2)C[C@@H]2CC[C@H]1N2C(=O)NCc1ccco1 | AC50 | [1] | 18.4 µM [falling, single point]
